For 2 molecules, binding results are on record in article PMC10073072.

Amino acid sequences for entries named in this document (tags omitted). A change or cut given only in a name is not applied to a line headed by its entry. Residues count along the entry.
UniProt Q9H1A3, residues 46-318: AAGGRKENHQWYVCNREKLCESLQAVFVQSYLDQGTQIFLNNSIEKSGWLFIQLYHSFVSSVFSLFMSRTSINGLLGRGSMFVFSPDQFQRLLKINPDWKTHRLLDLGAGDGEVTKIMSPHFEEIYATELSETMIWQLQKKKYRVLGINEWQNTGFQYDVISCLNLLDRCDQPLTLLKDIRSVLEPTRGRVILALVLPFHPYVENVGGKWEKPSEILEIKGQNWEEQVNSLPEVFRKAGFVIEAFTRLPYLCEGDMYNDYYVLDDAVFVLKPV
UniProt P31725: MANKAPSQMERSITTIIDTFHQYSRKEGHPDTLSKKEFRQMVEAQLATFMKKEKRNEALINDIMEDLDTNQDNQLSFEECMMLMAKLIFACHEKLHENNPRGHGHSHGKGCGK
UniProt Q6ZMH5: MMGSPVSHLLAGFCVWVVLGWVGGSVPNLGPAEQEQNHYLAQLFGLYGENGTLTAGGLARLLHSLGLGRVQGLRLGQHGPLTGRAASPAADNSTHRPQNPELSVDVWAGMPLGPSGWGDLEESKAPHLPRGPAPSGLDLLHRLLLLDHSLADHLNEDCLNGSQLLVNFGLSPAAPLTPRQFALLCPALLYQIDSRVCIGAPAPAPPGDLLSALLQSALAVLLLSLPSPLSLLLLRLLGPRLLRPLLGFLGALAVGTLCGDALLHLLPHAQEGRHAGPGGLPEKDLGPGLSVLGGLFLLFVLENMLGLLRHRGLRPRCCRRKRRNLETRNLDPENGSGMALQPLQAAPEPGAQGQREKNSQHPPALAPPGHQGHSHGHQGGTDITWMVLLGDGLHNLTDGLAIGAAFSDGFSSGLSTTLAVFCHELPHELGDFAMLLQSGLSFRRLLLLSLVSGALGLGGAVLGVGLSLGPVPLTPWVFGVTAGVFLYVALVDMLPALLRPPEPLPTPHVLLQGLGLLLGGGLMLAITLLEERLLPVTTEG

This assay concerns the target METTL9^46–318 (human) (UniProt Q9H1A3). Kind of assay: ITC; METTL9 protein and synthetic peptide; conditions and who was titrated not shown; both purified.

No constants are given. Whether binding was seen depends on the method and setting. Some results given as binding are weak or reduced against the parent protein; the word gives no strength.

B1: mouse S100A9^101–111 peptide (peptide, UniProt P31725 101-111)
peptide: RGHGHSHGKGC
On to B1, for which the binding entry is “binds”.

B2: SLC39A5^369–380 peptide (peptide, UniProt Q6ZMH5 369-380)
peptide: GHQGHSHGHQGGY
As for B2, the binding result is “binds”.
